# Reference: publication PMC4283650, “Untangling dopamine-adenosine receptor-receptor assembly in experimental parkinsonism in rats” (Disease Models & Mechanisms, 2014)
# Protein sequences, listed by entry. Tags and fused reporters are not part of them. Lines headed by an entry give the natural chain unless they say otherwise; changes in a name come on top.
# UniProt P30543: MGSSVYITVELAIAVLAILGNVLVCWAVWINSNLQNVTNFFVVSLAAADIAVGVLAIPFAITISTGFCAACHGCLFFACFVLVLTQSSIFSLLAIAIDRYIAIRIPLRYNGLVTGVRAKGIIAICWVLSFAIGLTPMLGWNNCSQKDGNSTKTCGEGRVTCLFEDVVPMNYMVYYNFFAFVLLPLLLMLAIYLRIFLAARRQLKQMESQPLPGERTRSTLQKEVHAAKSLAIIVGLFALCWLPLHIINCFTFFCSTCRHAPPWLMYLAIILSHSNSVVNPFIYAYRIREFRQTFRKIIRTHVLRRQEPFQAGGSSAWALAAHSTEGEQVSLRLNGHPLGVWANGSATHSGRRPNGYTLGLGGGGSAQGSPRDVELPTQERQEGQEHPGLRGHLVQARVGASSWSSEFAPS
# UniProt P61169: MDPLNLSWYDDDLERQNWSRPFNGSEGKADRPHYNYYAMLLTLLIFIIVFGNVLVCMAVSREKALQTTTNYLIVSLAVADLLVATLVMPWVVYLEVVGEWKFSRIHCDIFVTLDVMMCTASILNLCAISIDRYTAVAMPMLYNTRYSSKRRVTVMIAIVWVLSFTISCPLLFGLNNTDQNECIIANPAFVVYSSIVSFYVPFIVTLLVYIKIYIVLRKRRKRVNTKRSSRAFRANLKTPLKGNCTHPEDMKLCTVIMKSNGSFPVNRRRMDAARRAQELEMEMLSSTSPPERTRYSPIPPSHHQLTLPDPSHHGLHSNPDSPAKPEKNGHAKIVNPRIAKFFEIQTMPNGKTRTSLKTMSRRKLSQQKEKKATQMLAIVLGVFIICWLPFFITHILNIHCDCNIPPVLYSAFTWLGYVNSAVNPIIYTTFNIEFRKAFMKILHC
# Results are given in words; binding and its absence hold for the method and conditions named. In cells and extracts the contact can be indirect. Some binding calls cover weakened binding; strength is not graded here.
# Columns and labels:
# [1] = target: adenosine A2A receptor (native, rat striatum) (rat (endogenous in striatum)) (UniProt P30543); assay: FRET or BRET; TR-FRET between fluorescent ligands NAPS-Lumi4-Tb (1 nM) and SCH-red (10 nM) on fresh rat striatal membranes purified by sucrose gradient (70 ug per assay), overnight at 4°C, Tris-Krebs buffer pH 7.4; normal rats and 6-OHDA-lesioned rats
# [2] = target: adenosine A2A receptor (native, rat striatum) (rat (endogenous in striatum)) (UniProt P30543); assay: proximity ligation; Duolink in situ PLA on PFA-fixed coronal rat brain sections with goat anti-A2AR and rabbit anti-D2R polyclonal antibodies; striatum of normal and 6-OHDA-lesioned hemispheres; signal counted as dots/nuclei
# [3] = target: wild-type A2AR tagged with SNAP (UniProt P29274); assay: FRET or BRET; TR-FRET between fluorescent ligands NAPS-Lumi4-Tb (1 nM, donor on D2R) and SCH-red (10 nM, acceptor on A2AR) on transiently transfected HEK-293 cells; Tris-Krebs buffer pH 7.4
Substance,binding [1],binding [2],binding [3]
"dopamine D2 receptor (native, rat striatum) (from UniProt P61169 1-444)",binds,binds,–
wild-type D2R tagged with Halo (from UniProt P14416 1-443) (receptor),–,–,binds
